No constants are given. Whether binding was seen depends on the method and setting. For some assays here: A result given as binding can be weak or reduced; the word gives no strength.
What was measured:
[1] = biological target: PaPYL4.2 (Phelipanche aegyptiaca); assay: two-hybrid; PaPYL4 alleles with complete open reading frames against seven co-receptors, yeast Y190; plates with mock or a range of ABA concentrations (0.1–10 µM); X-Gal staining (Fig. S2)
[2] = biological target: PaPYL4.1 (Phelipanche aegyptiaca); assay: as above

B1: ABI2^G168D (enzyme, UniProt O04719 1-423)
chain: MDEVSPAVAVPFRPFTDPHAGLRGYCNGESRVTLPESSCSGDGAMKDSSFEINTRQDSLTSSSSAMAGVDISAGDEINGSDEFDPRSMNQSEKKVLSRTESRSLFEFKCVPLYGVTSICGRRPEMEDSVSTIPRFLQVSSSSLLDGRVTNGFNPHLSAHFFGVYDGHDGSQVANYCRERMHLALTEEIVKEKPEFCDGDTWQEKWKKALFNSFMRVDSEIETVAHAPETVGSTSVVAVVFPTHIFVANCGDSRAVLCRGKTPLALSVDHKPDRDDEAARIEAAGGKVIRWNGARVFGVLAMSRSIGDRYLKPSVIPDPEVTSVRRVKEDDCLILASDGLWDVMTNEEVCDLARKRILLWHKKNAMAGEALLPAEKRGEGKDPAAMSAAEYLSKMALQKGSKDNISVVVVDLKGIRKFKSKSLN
- binding [1]: no binding
- binding [2]: binds
